Construct, isoform or probe ends are uncertain for at least one entry. For some of these results: Negatives hold for the conditions tested. For some of these results: At least one verdict was read from the data and is not stated in words by the source. For some of these results: Weaker means in comparison with the reference protein, sequence or condition of that experiment. For some of these results: At least one result comes from cells or an extract, where the contact may be indirect. For some of these results: Protein sequences can lack the tags named with them.
Key:
[1] = target: NUCKS1, intact phosphorylated (UniProt Q9H1E3); test: competition EMSA; settings: 100x unlabelled competitor, 20 mM Tris-HCl pH 7.5, 100 mM KCl, 0.2% NP-40, 20% glycerol, 2 mM DTT, 50 ng (pure protein) or 1 ug (extract) salmon sperm DNA, 25 nM probe, 15 min at 37 C, recombinant protein, protein details: His6
[2] = target: T1, NUCKS1 in U2OS nuclear extract (UniProt Q9H1E3); test: EMSA; settings: WT U2OS nuclear extract shows much higher affinity than NUCKS1-KO extract, 1 ug salmon sperm DNA; 20 mM Tris-HCl pH 7.5, 100 mM KCl, 0.2% NP-40, 20% glycerol, 2 mM DTT, 50 ng (pure protein) or 1 ug (extract) salmon sperm DNA, 25 nM probe, 15 min at 37 C; protein in an extract; label: IRDye-800
T1 sequence (looked up, limits assumed): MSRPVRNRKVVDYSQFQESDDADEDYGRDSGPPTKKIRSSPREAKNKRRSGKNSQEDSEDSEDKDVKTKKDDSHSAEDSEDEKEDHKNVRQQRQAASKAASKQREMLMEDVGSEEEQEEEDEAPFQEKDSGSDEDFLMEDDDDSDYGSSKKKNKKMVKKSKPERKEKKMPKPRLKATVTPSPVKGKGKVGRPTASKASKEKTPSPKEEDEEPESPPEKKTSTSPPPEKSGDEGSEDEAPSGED

[3] = target: NUCKS1, intact phosphorylated (UniProt Q9H1E3); test: EMSA; settings: phosphorylated, 10.24-2500 nM protein, 25 nM probe, low affinity, 20 mM Tris-HCl pH 7.5, 100 mM KCl, 0.2% NP-40, 20% glycerol, 2 mM DTT, 50 ng (pure protein) or 1 ug (extract) salmon sperm DNA, 15 min at 37 C, recombinant protein, protein details: His6, label: IRDye-800

“GCCGACCAGTCCCGCTCCCGCGGGGGGTTGTGGGTATCTCGAAAAAAAATAAAGCTGCA (double strand)”: no binding [1].
“GCCGACCAGTCCCGCTCCCGCGGGGGGTTGTGGGTATCTCGAAGGCGGGTAAAGCTGCA (double strand) [SKP2 promoter WT probe, unlabelled competitor]”: binds [1].
“GCCGACCAGTCCCGCTCCCGCGGGGGGTTGTGGGTATCTCGAAGGCGGGTAAAGCTGCA (double strand) [SKP2 promoter WT probe]”: binds [2]; binds more weakly [3].

Reference: PMC8630071, “The NUCKS1-SKP2-p21/p27 axis controls S phase entry”
